Source: the supplement of paper PMC10735217
Counter-ions that a name gives are not always drawn. Some of the results follow. Single values are uncertain here, since repeats match poorly.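 In a drug-repurposing library screen, luminescence reads luciferase driven by eight TEAD-binding elements, stably integrated into human kidney-derived cells. Compounds scoring over five robust Z scores above the plate mean are called hits.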

Test system: HEK293A TEAD-LUC reporter
Assay: TEAD-luciferase reporter activity (YAP activation), robust Z score vs plate; higher = stronger YAP/TEAD activation
Conditions: 24 h

`Cc1c(N2C(=O)[C@@H]3[C@H](O)CCN3C2=O)ccc(C#N)c1Cl` was tested, and the TEAD-luciferase reporter activity (compound concentration: 200 nM) was inactive: 1.64, the TEAD-luciferase reporter activity (compound concentration: 2 uM) was inactive: -1.99 and the TEAD-luciferase reporter activity (compound concentration: 10 uM) was inactive: 0.0664.

`C[N+]1(C)C2CCC1CC(OC(=O)C(CO)c1ccccc1)C2` (configuration not stated) was tested, and the TEAD-luciferase reporter activity (compound concentration: 2 uM) was inactive: -1.25.

`C[N+]1(C)C2CCC1CC(OC(=O)C(CO)c1ccccc1)C2` (configuration not stated) [Atropine methyl bromide] was tested, and the TEAD-luciferase reporter activity (compound concentration: 200 nM) was inactive: 0.122 and the TEAD-luciferase reporter activity (compound concentration: 10 uM) was active: 7.42.

`O=C(C1CCCN1C(=O)c1ccc(F)cc1)N1CCC(N2Cc3ccccc3C2=O)CC1` (configuration not stated) was tested, and the TEAD-luciferase reporter activity (compound concentration: 200 nM) was inactive: 0.703 and the TEAD-luciferase reporter activity (compound concentration: 10 uM) was active: 7.79.

For `COc1ccc(CC(C)NCC(O)c2ccc(O)c(CO)c2)cc1` (configuration not stated), the TEAD-luciferase reporter activity (compound concentration: 200 nM) was inactive: -0.124, the TEAD-luciferase reporter activity (compound concentration: 2 uM) was inactive: 2.48 and the TEAD-luciferase reporter activity (compound concentration: 10 uM) was inactive: 1.14.

`Cc1cc2c3c(c1)C(c1ccccc1)=NC(NC(=O)c1ccncc1)C(=O)N3CC2` (configuration not stated) was tested, and the TEAD-luciferase reporter activity (compound concentration: 200 nM) was inactive: 0.0322, the TEAD-luciferase reporter activity (compound concentration: 2 uM) was inactive: -0.505 and the TEAD-luciferase reporter activity (compound concentration: 10 uM) was inactive: -0.166.

`CC(C)C[C@H]1C(=O)N2CCC[C@H]2[C@]2(O)O[C@](NC(=O)[C@@H]3C=C4c5cccc6[nH]c(Br)c(c56)CC4N(C)C3)(C(C)C)C(=O)N12` (some centres not stated) [bromocriptine mesylate] was tested, and the TEAD-luciferase reporter activity (compound concentration: 200 nM) was inactive: -0.314, the TEAD-luciferase reporter activity (compound concentration: 2 uM) was inactive: -1.18 and the TEAD-luciferase reporter activity (compound concentration: 10 uM) was inactive: -1.73.

With `Cc1ccc(/N=C/N(C)/C=N/c2ccc(C)cc2C)c(C)c1` [Amitraz] the TEAD-luciferase reporter activity (compound concentration: 200 nM) was inactive: -0.906, the TEAD-luciferase reporter activity (compound concentration: 2 uM) was inactive: 1.76 and the TEAD-luciferase reporter activity (compound concentration: 10 uM) was inactive: -0.613.

In the case of `CN(C)C1CC(c2ccc(Cl)c(Cl)c2)c2ccccc21` (configuration not stated), the TEAD-luciferase reporter activity (compound concentration: 200 nM) is reported as inactive: -0.604, the TEAD-luciferase reporter activity (compound concentration: 2 uM) is reported as inactive: -1.7 and the TEAD-luciferase reporter activity (compound concentration: 10 uM) is reported as inactive: -0.861.

With `CCOC(=O)Nc1ccc(NCc2ccc(F)cc2)cc1N` [ezogabine] the TEAD-luciferase reporter activity (compound concentration: 200 nM) was inactive: -1.18, the TEAD-luciferase reporter activity (compound concentration: 2 uM) was inactive: 1.21 and the TEAD-luciferase reporter activity (compound concentration: 10 uM) was active: 9.15.

In the case of `C[C@]12CC[C@H](O)C[C@@H]1CC[C@@H]1[C@@H]2CC[C@]2(C)C(=O)CC[C@@H]12`, the TEAD-luciferase reporter activity (compound concentration: 200 nM) is reported as inactive: -0.537, the TEAD-luciferase reporter activity (compound concentration: 2 uM) is reported as inactive: -0.22 and the TEAD-luciferase reporter activity (compound concentration: 10 uM) is reported as inactive: -0.903.

With `CC(O)(CNC(=O)C(F)(F)F)C(=O)Nc1ccc([N+](=O)[O-])c(C(F)(F)F)c1` (configuration not stated) the TEAD-luciferase reporter activity (compound concentration: 200 nM) was inactive: -1.29, the TEAD-luciferase reporter activity (compound concentration: 2 uM) was inactive: -1.12 and the TEAD-luciferase reporter activity (compound concentration: 10 uM) was inactive: 1.4.

In the case of `N#CCCN` [Beta-aminopropionitrile], the TEAD-luciferase reporter activity (compound concentration: 2 uM) is reported as inactive: 0.571.

In the case of `N#CCCN` [3-Aminopropionitrile fumarate], the TEAD-luciferase reporter activity (compound concentration: 200 nM) is reported as inactive: -0.793 and the TEAD-luciferase reporter activity (compound concentration: 10 uM) is reported as inactive: 1.94.

For `O=C(Oc1ccc(Br)cc1)N1CCN2CCC1CC2`, the TEAD-luciferase reporter activity (compound concentration: 200 nM) was inactive: -1.22, the TEAD-luciferase reporter activity (compound concentration: 2 uM) was inactive: 1.4 and the TEAD-luciferase reporter activity (compound concentration: 10 uM) was inactive: 1.47.

For `C#C[C@]1(O)CC[C@H]2[C@@H]3CC[C@H]4Cc5nn(S(C)(=O)=O)cc5C[C@]4(C)[C@H]3CC[C@@]21C` [Zanoterone], the TEAD-luciferase reporter activity (compound concentration: 200 nM) was inactive: 1.96, the TEAD-luciferase reporter activity (compound concentration: 2 uM) was inactive: -0.776 and the TEAD-luciferase reporter activity (compound concentration: 10 uM) was inactive: 1.52.

With `CC(C)(C)OC(=O)c1ncn2c1[C@@H]1CCCN1C(=O)c1c(Br)cccc1-2` [Bretazenil] the TEAD-luciferase reporter activity (compound concentration: 200 nM) was inactive: -2.4, the TEAD-luciferase reporter activity (compound concentration: 2 uM) was inactive: 0.327 and the TEAD-luciferase reporter activity (compound concentration: 10 uM) was inactive: 1.35.

`O=C(CS(=O)C(c1ccccc1)c1ccccc1)NO` (configuration not stated) [adrafinil] was tested, and the TEAD-luciferase reporter activity (compound concentration: 200 nM) was inactive: 1.01, the TEAD-luciferase reporter activity (compound concentration: 2 uM) was inactive: 0.00437 and the TEAD-luciferase reporter activity (compound concentration: 10 uM) was inactive: 0.952.

With `O=C(N[C@@H]1CN2CCC1CC2)c1cc(Cl)cc2c1O[C@H]1CCCC[C@@H]21` the TEAD-luciferase reporter activity (compound concentration: 200 nM) was inactive: -2.15, the TEAD-luciferase reporter activity (compound concentration: 2 uM) was inactive: -1.81 and the TEAD-luciferase reporter activity (compound concentration: 10 uM) was inactive: 0.386.

With `CC(O)(CS(=O)(=O)c1ccc(F)cc1)C(=O)Nc1ccc(C#N)c(C(F)(F)F)c1` (configuration not stated) [bicalutamide] the TEAD-luciferase reporter activity (compound concentration: 2 uM) was inactive: -0.443.

In the case of `CC(O)(CS(=O)(=O)c1ccc(F)cc1)C(=O)Nc1ccc(C#N)c(C(F)(F)F)c1` (configuration not stated), the TEAD-luciferase reporter activity (compound concentration: 200 nM) is reported as inactive: -3.12 and the TEAD-luciferase reporter activity (compound concentration: 10 uM) is reported as inactive: 1.84.

For `CC[C@H](C(=O)Oc1c(OC)cc(C)cc1OC)N(CCOC)CCOC`, the TEAD-luciferase reporter activity (compound concentration: 200 nM) was inactive: -0.406, the TEAD-luciferase reporter activity (compound concentration: 2 uM) was inactive: -0.448 and the TEAD-luciferase reporter activity (compound concentration: 10 uM) was inactive: 0.91.

`C[N@+]12CC[C@H](CC1)C(CN1c3ccccc3Sc3ccccc31)C2` (some centres not stated) was tested, and the TEAD-luciferase reporter activity (compound concentration: 200 nM) was inactive: -1.25, the TEAD-luciferase reporter activity (compound concentration: 2 uM) was inactive: -0.244 and the TEAD-luciferase reporter activity (compound concentration: 10 uM) was inactive: 2.05.

For `CC(=O)NCCCOc1ccc(C(=O)N2CCC(N3C(=O)CCc4ccccc43)CC2)cc1`, the TEAD-luciferase reporter activity (compound concentration: 200 nM) was inactive: 0.358, the TEAD-luciferase reporter activity (compound concentration: 2 uM) was inactive: -0.862 and the TEAD-luciferase reporter activity (compound concentration: 10 uM) was inactive: -0.523.

For `NCc1cc(O)no1` [Muscimol hydrobromide], the TEAD-luciferase reporter activity (compound concentration: 200 nM) was inactive: -0.507 and the TEAD-luciferase reporter activity (compound concentration: 10 uM) was inactive: -0.179.

`NCc1cc(O)no1` [Muscimol] was tested, and the TEAD-luciferase reporter activity (compound concentration: 2 uM) was inactive: 1.17.

For `[N-]=[N+]=CC(=O)OC[C@H](N)C(=O)O`, the TEAD-luciferase reporter activity (compound concentration: 200 nM) was inactive: -1.42, the TEAD-luciferase reporter activity (compound concentration: 2 uM) was inactive: 1.86 and the TEAD-luciferase reporter activity (compound concentration: 10 uM) was inactive: 0.155.

With `NCCN1C(=O)CN2CCOC2(c2ccccc2F)c2cc(Cl)ccc21` (configuration not stated) the TEAD-luciferase reporter activity (compound concentration: 200 nM) was inactive: -0.302, the TEAD-luciferase reporter activity (compound concentration: 2 uM) was inactive: -0.759 and the TEAD-luciferase reporter activity (compound concentration: 10 uM) was inactive: -0.242.

`CCC(Br)(CC)C(=O)NC(N)=O` was tested, and the TEAD-luciferase reporter activity (compound concentration: 200 nM) was inactive: 1.55, the TEAD-luciferase reporter activity (compound concentration: 2 uM) was inactive: 0.0493 and the TEAD-luciferase reporter activity (compound concentration: 10 uM) was inactive: -0.313.

For `CCCc1cc(O)c2c(c1)OC(C)(C)[C@@H]1CCC(C)=C[C@@H]21`, the TEAD-luciferase reporter activity (compound concentration: 200 nM) was inactive: -0.785, the TEAD-luciferase reporter activity (compound concentration: 2 uM) was inactive: -1.32 and the TEAD-luciferase reporter activity (compound concentration: 10 uM) was inactive: 0.438.
